Laboratory results reported in PubChem BioAssay AID248 (DTP/NCI, 2004).
The list does not hold the whole screen: it is rich in T/C values a quarter to a half above the control, in often repeated tests (any T/C) and in doses without a T/C. Further doses and runs are listed elsewhere. T/C: endpoint of the treated group in % of that of the vehicle group. Some doses have a count of surviving animals in place of a T/C: the source holds a T/C of zero for them, seemingly a mark for toxic or unscored doses. Some survivor counts are full or nearly so, which does not show that the dose was tolerated: survival well below the control is almost never listed, so the zero probably covers shortened survival too. Counts of survivors are from the toxicity check (mostly the fifth day) where no day follows; animals may have died later. Schedules are NCI's codes, taken here to give the interval after Q, in days (D) or hours (H), and the number of doses after X. Some entries were tested several times; the values are given in rising order. Some schedule codes hold Z or #, which are not explained here. Where survival is the endpoint, the PubChem record calls one and a half times the control and up active, and a quarter to a half above the control has no call in these data; cut-offs in other NCI protocols can differ.

System: L1210 leukemia ip in BDF1 mice, survival T/C
Assay: NCI In Vivo Anticancer Drug Screen. Data for tumor model L1210 Leukemia (intraperitoneal) in B6D2F1 (BDF1) mice
Conditions: T/C endpoint: mean survival time, higher T/C = longer survival
[1] = dose: 400.0 mg/kg/injection, schedule: Q01DX001 (ip), vehicle: saline
[2] = dose: 200.0 mg/kg/injection, schedule: Q04DX003 (ip), vehicle: saline
[3] = dose: 400.0 mg/kg/injection, schedule: Q04DX003 (ip), vehicle: saline
[4] = dose: 100.0 mg/kg/injection, schedule: Q01DX009 (ip), vehicle: saline
[5] = dose: 200.0 mg/kg/injection, schedule: Q04DX003 (ip), vehicle: Klucel (hydroxypropylcellulose) (HPC)
[6] = dose: 400.0 mg/kg/injection, schedule: Q04DX003 (ip), vehicle: Klucel (hydroxypropylcellulose) (HPC)

COC1=C(N)C(=O)c2nc(-c3nc(C(=O)O)c(C)c(-c4ccc(OC)c(OC)c4O)c3N)ccc2C1=O was tested, and the survivor count (dose: 0.1 mg/kg/injection, schedule: Q01DX009 (ip), vehicle: other) was 6 of 6, the T/C (dose: 0.2 mg/kg/injection, schedule: Q01DX Z (ip), vehicle: saline) was 128 % of control and the T/C (dose: 0.2 mg/kg/injection, schedule: Q04DX002 (ip), vehicle: saline) was 130 % of control. For the same compound, the T/C (dose: 0.3 mg/kg/injection, schedule: Q01DX Z (ip), vehicle: saline) was 130 % of control, the T/C (dose: 0.37 mg/kg/injection, schedule: Q01DX001 (ip), vehicle: other) was 125 % of control and the survivor count (dose: 0.4 mg/kg/injection, schedule: Q01DX009 (ip), vehicle: other) was 6 of 6. For the same compound, the survivor count (dose: 0.4 mg/kg/injection, schedule: Q04DX002 (ip), vehicle: saline) was 2 of 3, the survivor count (dose: 0.75 mg/kg/injection, schedule: Q01DX015 (ip), vehicle: water) was 5 of 6 and the survivor count (dose: 0.8 mg/kg/injection, schedule: Q01DX009 (ip), vehicle: other) was 6 of 6. The survivor count (dose: 1.0 mg/kg/injection, schedule: Q01DX001 (ip), vehicle: carboxymethylcellulose (CMC)) was 4 of 4, the survivor count (dose: 1.0 mg/kg/injection, schedule: Q01DX009 (ip), vehicle: saline) was 4 of 6 and 5 of 6 and the survivor count (dose: 1.0 mg/kg/injection, schedule: Q01DX015 (ip), vehicle: water) was 6 of 6. The survivor count (dose: 1.56 mg/kg/injection, schedule: Q04DX002 (ip), vehicle: saline) was 3 of 3, the survivor count (dose: 1.6 mg/kg/injection, schedule: Q01DX Z (ip), vehicle: alkali diluted with CMC) was 4 of 6 and 6 of 6 and the survivor count (dose: 2.0 mg/kg/injection, schedule: Q01DX009 (ip), vehicle: saline) was 0 of 6. The survivor count (dose: 3.0 mg/kg/injection, schedule: Q01DX001 (ip), vehicle: saline) was 0 of 6, the survivor count (dose: 3.13 mg/kg/injection, schedule: Q04DX002 (ip), vehicle: saline) was 1 of 3 and the survivor count (dose: 4.0 mg/kg/injection, schedule: Q01DX001 (ip), vehicle: carboxymethylcellulose (CMC)) was 1 of 4. The survivor count (dose: 5.0 mg/kg/injection, schedule: Q01DX001 (ip), vehicle: carboxymethylcellulose (CMC)) was 0 of 4, the survivor count (dose: 6.0 mg/kg/injection, schedule: Q01DX001 (ip), vehicle: saline) was 0 of 6 and the survivor count (dose: 6.25 mg/kg/injection, schedule: Q04DX002 (ip), vehicle: saline) was 0 of 3. For the same compound, the survivor count (dose: 8.0 mg/kg/injection, schedule: Q01DX001 (ip), vehicle: carboxymethylcellulose (CMC)) was 0 of 4, the survivor count (dose: 10.0 mg/kg/injection, schedule: Q01DX001 (ip), vehicle: carboxymethylcellulose (CMC)) was 0 of 4 and the survivor count (dose: 12.0 mg/kg/injection, schedule: Q01DX001 (ip), vehicle: saline) was 0 of 6. For the same compound, the survivor count (dose: 12.5 mg/kg/injection, schedule: Q04DX002 (ip), vehicle: saline) was 3 of 3, the survivor count (dose: 20.0 mg/kg/injection, schedule: Q01DX001 (ip), vehicle: carboxymethylcellulose (CMC)) was 0 of 4 and the survivor count (dose: 20.0 mg/kg/injection, schedule: Q01DX001 (oral), vehicle: water) was 3 of 4. For the same compound, the survivor count (dose: 24.0 mg/kg/injection, schedule: Q01DX001 (ip), vehicle: saline) was 0 of 6, the survivor count (dose: 25.0 mg/kg/injection, schedule: Q04DX002 (ip), vehicle: saline) was 1 of 3 and the survivor count (dose: 40.0 mg/kg/injection, schedule: Q01DX001 (ip), vehicle: carboxymethylcellulose (CMC)) was 0 of 4. The survivor count (dose: 50.0 mg/kg/injection, schedule: Q04DX002 (ip), vehicle: saline) was 0 of 3, the survivor count (dose: 80.0 mg/kg/injection, schedule: Q01DX001 (ip), vehicle: carboxymethylcellulose (CMC)) was 0 of 4 and the survivor count (dose: 100.0 mg/kg/injection, schedule: Q01DX001 (ip), vehicle: carboxymethylcellulose (CMC)) was 0 of 4. For the same compound, the survivor count (dose: 100.0 mg/kg/injection, schedule: Q04DX002 (ip), vehicle: saline) was 0 of 3, the survivor count (dose: 200.0 mg/kg/injection, schedule: Q01DX001 (ip), vehicle: carboxymethylcellulose (CMC)) was 0 of 4 and the survivor count (dose: 200.0 mg/kg/injection, schedule: Q04DX002 (ip), vehicle: saline) was 0 of 3. The survivor count (dose: 400.0 mg/kg/injection, schedule: Q01DX001 (ip), vehicle: carboxymethylcellulose (CMC)) was 0 of 4 and the survivor count (dose: 400.0 mg/kg/injection, schedule: Q04DX002 (ip), vehicle: saline) was 0 of 3.

Cc1ccc(NCCN(C)C)c2c(=O)c3ccccc3sc12 was tested, and the T/C (dose: 21.0 mg/kg/injection, schedule: Q01DX Z (ip), vehicle: saline) was 125 % of control, the T/C (dose: 42.0 mg/kg/injection, schedule: Q01DX Z (ip), vehicle: saline) was 132 % of control and the T/C (dose: 50.0 mg/kg/injection, schedule: Q01DX Z (ip), vehicle: saline) was 149 % of control. For the same compound, the T/C (dose: 62.0 mg/kg/injection, schedule: Q01DX Z (ip), vehicle: saline) was 137 % of control, the T/C (dose: 75.0 mg/kg/injection, schedule: Q01DX Z (ip), vehicle: saline) was 139 % of control and the survivor count (dose: 168.0 mg/kg/injection, schedule: Q01DX Z (ip), vehicle: saline) was 0 of 6. The survivor count (dose: 250.0 mg/kg/injection, schedule: Q01DX Z (ip), vehicle: carboxymethylcellulose (CMC)) was 4 of 6, the survivor count (dose: 300.0 mg/kg/injection, schedule: Q01DX001 (ip), vehicle: saline) was 1 of 4 and the survivor count [1] was 1 of 4.

In the case of CCN(CC)c1ccc(NC(C)S(=O)(=O)O)cc1 (stereo not given), the survivor count (dose: 100.0 mg/kg/injection, schedule: Q01DX009 (ip), vehicle: saline with Tween-80) was 4 of 6, the survivor count (dose: 200.0 mg/kg/injection, schedule: Q01DX009 (ip), vehicle: saline with Tween-80) was 0 of 6 and the survivor count (dose: 400.0 mg/kg/injection, schedule: Q01DX009 (ip), vehicle: saline with Tween-80) was 0 of 6.

With Cc1cc(C)[n+](C)c(C)c1 the survivor count [2] was 3 of 6 and the survivor count [3] was 1 of 6.

COc1cccc(CN(C)C)c1C(C)(C)O was tested, and the survivor count (dose: 200.0 mg/kg/injection, schedule: Q01DX001 (ip), vehicle: saline) was 3 of 6 and the survivor count [1] was 0 of 6.

For Cc1nc(CN(C)C)c2cnccn12, the survivor count [4] was 3 of 6, the survivor count [2] was 2 of 6 and the survivor count [3] was 1 of 6.

For CC(Cl)(Cl)CC(O)(C(F)(F)F)C(F)(F)F, the survivor count (dose: 400.0 mg/kg/injection, schedule: Q04DX003 (ip), vehicle: saline with Tween-80) was 4 of 6.

Cc1c(C(=O)O)nnn1/C=C/c1ccccc1 was tested, and the survivor count (dose: 400.0 mg/kg/injection, schedule: Q04DX003 (ip), vehicle: acetone) was 4 of 6.

With Cc1cccc(C[P+](C/C=C/c2ccccc2)(c2ccccc2)c2ccccc2)c1 the survivor count (dose: 25.0 mg/kg/injection, schedule: Q04DX003 (ip), vehicle: Klucel (hydroxypropylcellulose) (HPC)) was 6 of 6, the survivor count (dose: 50.0 mg/kg/injection, schedule: Q04DX003 (ip), vehicle: Klucel (hydroxypropylcellulose) (HPC)) was 0 of 6 and 1 of 6 and the survivor count (dose: 100.0 mg/kg/injection, schedule: Q04DX003 (ip), vehicle: Klucel (hydroxypropylcellulose) (HPC)) was 0 of 6. The survivor count [5] was 0 of 6 and the survivor count [6] was 0 of 6.

In the case of [CH3][Sn]([CH3])([Br])[CH2]CCBr, the survivor count (dose: 0.39 mg/kg/injection, schedule: Q01DX009 (ip), vehicle: saline) was 3 of 3, the survivor count (dose: 50.0 mg/kg/injection, schedule: Q01DX009 (ip), vehicle: saline) was 0 of 3 and the survivor count [4] was 0 of 3. For the same compound, the survivor count (dose: 200.0 mg/kg/injection, schedule: Q01DX009 (ip), vehicle: saline) was 0 of 3.

COc1ccc(C[n+]2cccc(CNC(=O)COc3ccc(Cl)c(Cl)c3)c2)cc1 was tested, and the survivor count [5] was 3 of 6 and the survivor count [6] was 1 of 6.
